Results are given in words; binding and its absence hold for the method and conditions named. A result given as binding can be weak or reduced; the word gives no strength.

Protein sequences, listed by entry. Tags and fused reporters are not part of them. Lines headed by an entry give the natural chain unless they say otherwise; changes in a name come on top.
UniProt Q92538: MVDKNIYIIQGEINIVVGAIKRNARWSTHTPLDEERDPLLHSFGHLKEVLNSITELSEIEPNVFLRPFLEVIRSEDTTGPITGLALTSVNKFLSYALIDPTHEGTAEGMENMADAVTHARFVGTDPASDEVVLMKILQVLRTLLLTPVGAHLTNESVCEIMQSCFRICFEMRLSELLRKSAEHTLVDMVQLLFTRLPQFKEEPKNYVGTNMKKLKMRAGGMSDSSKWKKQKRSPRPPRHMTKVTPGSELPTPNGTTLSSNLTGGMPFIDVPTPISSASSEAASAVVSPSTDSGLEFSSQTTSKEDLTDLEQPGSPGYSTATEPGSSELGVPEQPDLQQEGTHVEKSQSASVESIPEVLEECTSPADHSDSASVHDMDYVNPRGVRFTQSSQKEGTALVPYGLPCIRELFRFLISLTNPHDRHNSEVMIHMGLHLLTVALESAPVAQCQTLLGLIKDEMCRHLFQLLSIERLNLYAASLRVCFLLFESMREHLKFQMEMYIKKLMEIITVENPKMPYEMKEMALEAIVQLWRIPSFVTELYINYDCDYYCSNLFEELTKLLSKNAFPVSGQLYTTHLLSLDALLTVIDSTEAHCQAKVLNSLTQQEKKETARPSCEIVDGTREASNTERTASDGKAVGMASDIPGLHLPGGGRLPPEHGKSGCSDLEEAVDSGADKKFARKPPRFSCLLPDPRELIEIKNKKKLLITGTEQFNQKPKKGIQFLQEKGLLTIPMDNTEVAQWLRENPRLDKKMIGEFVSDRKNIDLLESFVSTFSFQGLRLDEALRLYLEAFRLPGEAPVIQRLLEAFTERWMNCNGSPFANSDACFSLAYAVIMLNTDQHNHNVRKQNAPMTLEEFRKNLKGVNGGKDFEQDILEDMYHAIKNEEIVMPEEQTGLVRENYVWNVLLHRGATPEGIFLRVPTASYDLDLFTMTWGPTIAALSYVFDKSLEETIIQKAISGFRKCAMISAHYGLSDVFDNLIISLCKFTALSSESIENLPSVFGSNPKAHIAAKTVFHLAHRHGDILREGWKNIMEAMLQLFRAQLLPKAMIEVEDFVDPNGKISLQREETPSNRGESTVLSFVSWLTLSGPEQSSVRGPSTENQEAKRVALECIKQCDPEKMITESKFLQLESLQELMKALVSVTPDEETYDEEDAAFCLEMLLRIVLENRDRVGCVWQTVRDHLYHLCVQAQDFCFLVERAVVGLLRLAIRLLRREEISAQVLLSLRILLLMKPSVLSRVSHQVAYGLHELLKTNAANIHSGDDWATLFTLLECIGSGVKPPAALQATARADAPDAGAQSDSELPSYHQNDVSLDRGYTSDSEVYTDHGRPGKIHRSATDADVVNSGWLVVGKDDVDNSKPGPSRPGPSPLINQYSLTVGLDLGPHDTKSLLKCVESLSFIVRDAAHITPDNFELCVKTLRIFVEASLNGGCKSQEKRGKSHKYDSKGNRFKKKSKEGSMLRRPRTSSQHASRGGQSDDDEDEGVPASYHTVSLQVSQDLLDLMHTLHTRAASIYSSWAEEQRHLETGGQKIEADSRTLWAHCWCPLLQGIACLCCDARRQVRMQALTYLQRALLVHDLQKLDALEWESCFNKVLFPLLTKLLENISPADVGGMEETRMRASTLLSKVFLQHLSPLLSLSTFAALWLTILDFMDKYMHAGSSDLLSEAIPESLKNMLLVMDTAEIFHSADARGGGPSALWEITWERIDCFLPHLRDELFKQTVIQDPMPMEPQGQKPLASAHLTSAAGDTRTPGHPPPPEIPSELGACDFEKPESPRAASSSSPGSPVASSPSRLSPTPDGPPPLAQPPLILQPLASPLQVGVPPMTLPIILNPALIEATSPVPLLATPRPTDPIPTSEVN
UniProt P18085: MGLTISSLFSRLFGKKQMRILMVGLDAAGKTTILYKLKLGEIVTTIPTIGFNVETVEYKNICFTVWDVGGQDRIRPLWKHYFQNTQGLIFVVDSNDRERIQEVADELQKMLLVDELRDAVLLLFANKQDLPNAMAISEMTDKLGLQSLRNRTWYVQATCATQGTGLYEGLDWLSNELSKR
UniProt P02699: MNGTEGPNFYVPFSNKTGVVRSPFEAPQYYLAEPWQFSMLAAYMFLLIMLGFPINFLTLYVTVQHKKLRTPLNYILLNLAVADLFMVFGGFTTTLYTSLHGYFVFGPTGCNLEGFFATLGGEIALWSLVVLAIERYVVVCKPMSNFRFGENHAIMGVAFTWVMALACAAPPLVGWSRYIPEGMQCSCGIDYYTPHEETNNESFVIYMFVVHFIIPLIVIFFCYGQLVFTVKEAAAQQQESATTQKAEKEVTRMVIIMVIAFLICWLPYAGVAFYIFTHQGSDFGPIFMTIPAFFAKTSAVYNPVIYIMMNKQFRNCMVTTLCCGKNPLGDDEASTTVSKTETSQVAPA

The source of these data is PMC4519070.

Assay [1] has as its target GST-Sec7-HDS1 domain of GBF1 (UniProt Q92538). Briefly: pull-down; GST-pulldowns with GST-fused GBF1 domains; recombinant Arf4 pre-loaded with GDPbS, with purified rhodopsin; both purified.
Assay [2] deals with GST-DCB-HUS domain of GBF1 (UniProt Q92538). The assay is described as follows: pull-down; GST-pulldowns with GST-fused GBF1 domains; recombinant Arf4 pre-loaded with GTPgS, with purified rhodopsin; both purified.
Assay [3] shares this target. Briefly: pull-down; GST-pulldowns of purified rhodopsin with GST-fused GBF1 domains, with or without recombinant Arf4; both purified.

With “recombinant Arf4 (from UniProt P18085 1-180)”, the binding result in assay [1] and in assay [2] was “binds” each time. “purified rhodopsin (from UniProt P02699 1-348) (receptor)”: the binding result in assay [3] was “binds”.
